Entries after “also recorded” stand apart in the source; their conditions may differ. At least one compound was matched to its structure with a doubt left.
Columns and labels:
depression = settings: human clinical trial; cited from earlier work
[1] = test system: brain (PFC, AMY) and blood gene expression of DBP KO ST mice; test: Microarray gene expression (PFC, AMY, blood) on high DHA vs. low DHA diet; assay type: in vivo
DBP KO ST mice [2] = test: Alcohol studies with DHA: alcohol free-choice drinking paradigm; assay type: in vivo; settings: High DHA vs. Low DHA diet, 10% ethanol free choice, 14 days
DBP KO ST mice [3] = test: DHA (omega-3 fatty acids) experiments: High DHA vs. Low DHA diet, stress (ST) paradigm, behavioral testing; assay type: in vivo; settings: High DHA (0.69% DHA) vs. Low DHA diet, 28 days
cyclooxygenase-2 = settings: chronic lithium treatment; cited from earlier work
[4] = DBP KO ST mice, treatment with DHA

In the case of `Cc1ccc(-c2cc(C(F)(F)F)nn2-c2ccc(S(N)(=O)=O)cc2)cc1` [celecoxib], the “therapeutic effects in depression” value (depression) is given as “shown to have therapeutic effects in depression”.

With `CC/C=C\C/C=C\C/C=C\C/C=C\C/C=C\C/C=C\CCC(=O)O` [DHA, docosahexaenoic acid] the “Apod expression changes (increased in amygdala, decreased in PFC)” value [1, 4] was “reverses those changes”, the “Snca expression changes (decreased in amygdala and blood)” value [1, 4] was “reverses those changes” and the “gene expression/blood biomarker abnormalities” value ([1]; DBP KO mice, high DHA vs. low DHA diet) was “reverses; also recorded: reverse (correct)”. The alcohol consumption (DBP KO ST mice [2]) was “normalizing effect (decreases) the increased alcohol consumption” and the “behavioral abnormalities (differences) between DBP KO ST mice and WT mice” value (DBP KO ST mice [3]) was “normalizing effect (reverses) some of the behavioral abnormalities; also recorded: reverse (correct)”.

In the case of `[Li]` [lithium], the “cyclooxygenase-2 activity in rat brain” value (cyclooxygenase-2) is listed as “downregulates cyclooxygenase-2 activity”.

— US20110045998A1, “CANDIDATE GENES AND BLOOD BIOMARKERS FOR BIPOLAR MOOD DISORDER, ALCOHOLISM AND STRESS DISORDER” (priority 2007, published 2011)
